Binding data for five molecules are collected here from paper PMC4428629, “The Structure of an NDR/LATS Kinase–Mob Complex Reveals a Novel Kinase–Coactivator System and Substrate Docking Mechanism” (PLoS Biology, 2015).

Chains of the proteins cited; added tags and fusions are not shown. Lines headed by an entry give the natural chain unless they say otherwise; changes in a name come on top.
UniProt P24276: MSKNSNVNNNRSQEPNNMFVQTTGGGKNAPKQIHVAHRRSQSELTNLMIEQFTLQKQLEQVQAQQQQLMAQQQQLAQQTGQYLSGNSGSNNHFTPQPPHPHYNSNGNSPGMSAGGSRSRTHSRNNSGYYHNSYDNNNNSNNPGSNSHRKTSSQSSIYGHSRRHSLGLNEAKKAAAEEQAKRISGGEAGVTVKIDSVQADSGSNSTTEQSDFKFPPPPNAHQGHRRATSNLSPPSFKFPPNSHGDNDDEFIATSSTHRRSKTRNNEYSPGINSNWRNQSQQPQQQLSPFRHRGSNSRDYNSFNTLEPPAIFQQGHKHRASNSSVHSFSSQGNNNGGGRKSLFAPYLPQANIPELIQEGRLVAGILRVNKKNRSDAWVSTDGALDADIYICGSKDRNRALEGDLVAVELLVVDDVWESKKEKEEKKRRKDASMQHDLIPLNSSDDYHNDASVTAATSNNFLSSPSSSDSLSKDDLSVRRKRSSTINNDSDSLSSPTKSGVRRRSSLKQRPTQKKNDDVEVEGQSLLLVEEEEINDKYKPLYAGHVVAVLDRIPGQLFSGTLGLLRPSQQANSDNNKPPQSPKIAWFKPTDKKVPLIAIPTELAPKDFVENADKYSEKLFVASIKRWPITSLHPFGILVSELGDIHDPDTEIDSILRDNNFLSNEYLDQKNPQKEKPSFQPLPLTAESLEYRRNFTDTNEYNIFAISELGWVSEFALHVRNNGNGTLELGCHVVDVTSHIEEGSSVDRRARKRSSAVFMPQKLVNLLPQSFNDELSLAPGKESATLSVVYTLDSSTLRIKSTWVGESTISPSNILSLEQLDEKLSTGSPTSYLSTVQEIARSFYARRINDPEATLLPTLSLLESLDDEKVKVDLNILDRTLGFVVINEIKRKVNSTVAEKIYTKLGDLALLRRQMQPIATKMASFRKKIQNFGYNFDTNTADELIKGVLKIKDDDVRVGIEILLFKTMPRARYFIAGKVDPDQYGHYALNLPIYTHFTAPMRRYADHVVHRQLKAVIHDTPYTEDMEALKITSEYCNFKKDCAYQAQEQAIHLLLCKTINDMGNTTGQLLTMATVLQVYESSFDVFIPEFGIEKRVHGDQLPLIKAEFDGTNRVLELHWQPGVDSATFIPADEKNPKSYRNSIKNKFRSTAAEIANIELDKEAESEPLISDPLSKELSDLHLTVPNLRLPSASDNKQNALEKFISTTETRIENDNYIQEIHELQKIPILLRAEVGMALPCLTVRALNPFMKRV

These are yes or no findings as the source states them, for the method shown. Binding calls can cover weak binding; strength is not graded here. For some of these results: Where a sequence is shown, tags or fusion partners need not be part of it.

The target of experiment [1] is T1, pepSSD1, carboxyfluorescein-labelled (S. cerevisiae).
T1 sequence (peptide, carboxyfluorescein on the N-terminus): TTEQSDFKFP
Description: fluorescence polarisation; direct titration: protein titrated into 20 nM carboxyfluorescein-labelled peptide; 20 mM Tris (pH 8.0), 100 mM NaCl, 0.05% Brij35P, 2 mM DTT; quadratic binding equation; both purified. In general terms: Polarisation of emitted light reports the rotation of a fluorescent probe.

Experiment [2] concerns the target T2, Ssd1^208–214, MBP fusion (S. cerevisiae) (UniProt P24276).
T2 sequence: QSDFKFP
The experiment can be described thus: pull-down; MBP fusions on amylose beads incubated with 1 μM purified Cbk1 on ice for 15 min, washed 3× with PBS; GelCode Blue or immunoblot (His or pS570 antibodies); both purified. On the technique in general: In western blotting, separated proteins are transferred to a membrane and probed.

In experiment [3] the target is T3, pepAce2, carboxyfluorescein-labelled (S. cerevisiae).
T3 sequence (peptide, carboxyfluorescein on the N-terminus): GSGSIIVTTNSANGGYQFP
Description: fluorescence polarisation; direct titration: protein titrated into 20 nM carboxyfluorescein-labelled peptide; 20 mM Tris (pH 8.0), 100 mM NaCl, 0.05% Brij35P, 2 mM DTT; quadratic binding equation; both purified.

Experiment [4] deals with Cbk1^Δ730–756–Mob2 complex (S. cerevisiae). Description: fluorescence polarisation; steady-state competition: 20 nM labelled reporter with protein at ~60%–80% complex formation, unlabelled peptide titrated; competition binding equation; both purified.

Take “Cbk1^Δ730–756–Mob2 complex (S. cerevisiae)”: in experiment [1], the binding result is recorded as “binds”.
On to “Cbk1 kinase domain (limits not told for the experiment) (S. cerevisiae) (domain or fragment)”, for which the binding entry in experiment [1] is “binds”.
Take “Cbk1(F699A)–Mob2 complex (S. cerevisiae)”: the binding entry in experiment [2], in experiment [3] and in experiment [1] was “binds” throughout.
Take “Cbk1(Y687A)–Mob2 complex (S. cerevisiae)”: the binding result in experiment [2] was “no binding (tested: 1 μM)”.
As for IGYTYSRFDY (phosphothreonine at the fourth residue (T743 of Cbk1)) [HM-P peptide, unlabelled], the binding entry in experiment [4] is reported as “binds”.
